# “And” between values parts separate entries of the source, which are not always exact repeats. Identical values can stand only once. The list shows a part of the results. These are further read-outs of the screen, such as a control signal, another cell line or another target. No call is given for them. Most of these compounds were active or inconclusive in the main read-out, so they are no random draw. Potencies come from curve fits of mixed quality, noted in brackets.
# Assay: qHTS Assay for Lipid Storage Modulators in Drosophila S3 Cells;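 on cell number change: cells counted by Cell Tracker Red CMTPX staining in the red channel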
# Settings: BODIPY lipid droplet fluorescence, 18-24 h; for cell number change: measured here: cell count max response, cells fed with added oleic acid
# Method in brief: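 Drosophila S3 cells got compounds at several concentrations plus oleic acid (400 uM solution). Laser-scanning cytometry with 488 nm excitation read lipid droplets at 500-530 nm and cells at 575-640 nm. Percent activity was relative to 20 uM Triacsin C.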
# [1] = measured here: lipid fluorescence (Fed channel) AC50, cells fed with added oleic acid
# [2] = measured here: cell number channel AC50, cells fed with added oleic acid
structure (smiles),measurement,setting,value
CCCN1CCN(C(=O)c2oc3ccccc3c2NC(=O)COc2ccc(OC)cc2)CC1,cell number change,,13.4%
same,AC50,[1],"16.4 µM [rising, partial curve]"
COc1ccc(-c2nc(C(=O)NCCCN3CCOCC3)cc3c2[nH]c2ccccc23)cc1OC,cell number change,,-37.9%
same,AC50,[2],"10.3 µM [falling, partial curve, poor fit]"
same,AC50,[1],"2.06 µM [falling, partial curve]"
Cc1cc(CCN2CCC(=O)NC2=O)ccc1OC(C)C,cell number change,,8.27%
same,AC50,[1],"4.11 µM [falling, single point]"
C=CCNC(=S)Nc1ccc(Cl)cc1,cell number change,,14.7%
same,AC50,[1],"0.651 µM [falling, full curve, poor fit]"
COc1cc(CC(=O)NCCCc2ccccc2)cc(OC)c1OC,cell number change,,12.1%
same,AC50,[1],"2.31 µM [rising, partial curve]"
COc1ccc(OC)c(NC2=C(Cl)C(=O)N(Cc3ccccc3)C2=O)c1,cell number change,,-55.9%
same,AC50,[2],"0.82 µM [falling, partial curve]"
same,AC50,[1],"29.1 µM [falling, single point]"
C=CCc1cccc2cc(C(=O)N(CC)CC)c(=O)oc12,cell number change,,-19.3%
same,AC50,[2],"0.326 µM [rising, full curve]"
same,AC50,[1],"6.51 µM [rising, partial curve, poor fit]"
O=C(CNS(=O)(=O)c1cccc2nsnc12)NC1CCCCC1,cell number change,,7.37%
O=C(NCC1COc2ccccc2O1)c1cc(S(=O)(=O)N2CCOCC2)c(Cl)cc1Cl (stereo not drawn),cell number change,,98.5%
same,AC50,[2],"16.4 µM [rising, partial curve]"
Cc1nc(C)c(-c2ccc(SCc3ccc(Cl)cc3)nn2)s1,cell number change,,6.27%
same,AC50,[1],"6.51 µM [rising, single point]"
CC(=O)Nc1sc(NC(=O)c2ccccc2)nc1-c1cccs1,cell number change,,-0.272%
O=C(NCCSC1CCCCC1)c1ccccc1,cell number change,,108%
same,AC50,[2],"14.6 µM [rising, partial curve]"
O=c1c2cn[nH]c2[nH]c(=S)n1-c1ccccc1F,cell number change,,-51.5%
same,AC50,[2],"20.6 µM [falling, single point]"
same,AC50,[1],"20.6 µM [falling, single point]"
CCOc1ccccc1C(=O)NCC(=O)OCC(=O)NCCc1ccc(S(N)(=O)=O)cc1,cell number change,,-33.1%
same,AC50,[2],"20.6 µM [falling, partial curve]"
O=[N+]([O-])c1cccc(C(=S)N2CCN(c3ccc(F)cc3)CC2)c1,cell number change,,-1.22%
same,AC50,[2],"0.731 µM [rising, partial curve]"
COc1ccc(CNC(=O)c2cc3c(=O)n4ccccc4nc3n(Cc3cccnc3)c2=N)cc1,cell number change,,7.16%
same,AC50,[1],"0.103 µM [rising, full curve, poor fit]"
CCNC(=O)c1ccccc1NC(=O)C1CC(=O)N(C(C)C)C1 (stereo not drawn),cell number change,,-21%
same,AC50,[1],"20.6 µM [rising, partial curve]"
CSc1ccc(Cl)c(C(=O)N(C)CC(=O)Nc2ccc(N3CCOCC3)cc2)c1,cell number change,,42.5%
same,AC50,[2],"20.6 µM [rising, single point]"
COc1cc(C2C3=C(CC(C)(C)CC3=O)OC3=C2C(=O)CC(C)(C)C3)cc([N+](=O)[O-])c1O,cell number change,,6.68%
same,AC50,[1],"0.259 µM [rising, full curve, poor fit]"
COc1ccc2cc(S(=O)(=O)N3CCCC(C)C3)ccc2c1 (stereo not drawn),cell number change,,8.55%
same,AC50,[1],"0.082 µM [falling, partial curve, poor fit]"
COc1cccc(CNc2ncnc3ccc(-c4c(C)noc4C)cc23)c1,cell number change,,3.42% and -0.368%
same,AC50,[2],"0.13 µM [falling, full curve, poor fit]"
same,AC50,[1],"16.4 µM [falling, partial curve, poor fit]"
O=C(NNC(=O)C12CC3CC(CC(C3)C1)C2)c1ccccc1O,cell number change,,-16.4%
same,AC50,[1],"29.1 µM [falling, single point]"
CC1(C)C2CCC(C2)C1(C)NC(=O)CNCc1cccs1 (stereo not drawn),cell number change,,2.98%
same,AC50,[1],"29.1 µM [falling, partial curve, poor fit]"
C[C@H]1CCC[C@@]2(O[C@@H](CCO)C[C@@H](O)[C@@H]2O)O1,cell number change,,0.818%
same,AC50,[1],"0.082 µM [rising, full curve, poor fit]"
CC12C(=O)N(c3ccc(C(=O)N4CCOCC4)cc3)C(=O)C1C1c3ccccc3C2c2ccccc21 (stereo not drawn),cell number change,,-66.7%
same,AC50,[2],"11.6 µM [falling, partial curve]"
COc1ccc(C(=O)c2cn[nH]c2-c2ccc(C)cc2O)cc1,cell number change,,2.95%
same,AC50,[1],"0.103 µM [falling, full curve, poor fit]"
O=C(C1CCCCC1)N1CCC(c2nc3ccccc3[nH]2)CC1,cell number change,,-8.26%
same,AC50,[1],"9.2 µM [rising, partial curve]"
CC1(C)C(c2cccs2)=[N+]([O-])C2(CCCCC/C2=N\O)N1O (stereo not drawn),cell number change,,23.4%
CC12CCC(=O)N1C(C(=O)Nc1cccc(F)c1)CS2 (stereo not drawn),cell number change,,-13.6%
CC(=O)NCCN1C(=O)C2C3c4ccccc4C(c4ccccc43)C2C1=O (stereo not drawn),cell number change,,-35.3%
same,AC50,[2],"1.3 µM [falling, full curve]"
same,AC50,[1],"1.64 µM [falling, full curve]"
C=CCn1c(COc2ccccc2)nnc1SCC(=O)NCC(=O)OCC,cell number change,,21.6%
same,AC50,[2],"0.92 µM [rising, full curve, poor fit]"
same,AC50,[1],"1.84 µM [rising, full curve]"
O=C(/C=C/c1ccccc1)OCC(=O)N1CCN(c2ccccc2)CC1,cell number change,,3.5%
CCc1cc(SC#N)ccc1N,cell number change,,78.7%
O=C(Cc1ccccc1)NCCc1ccc(Cl)cc1Cl,cell number change,,133%
same,AC50,[2],"29.1 µM [rising, single point]"
same,AC50,[1],"23.1 µM [rising, single point]"
CCCCc1c(O)nc(SCC(=O)N2CCOCC2)n(-c2ccc(OC)cc2)c1=O,cell number change,,-9.58%
same,AC50,[1],"0.103 µM [falling, single point]"
O=C(CCn1c(=O)sc2ccccc21)Nc1nc2ccccc2s1,cell number change,,20.6%
CC1CCCC(NC(=O)c2nn(C)c3c2CS(=O)(=O)c2ccccc2-3)C1C (stereo not drawn),cell number change,,-88.1%
same,AC50,[1],"6.51 µM [rising, single point]"
Cc1ccc(S(=O)(=O)N2CCOCC2)cc1C(=O)Nc1ccncc1,cell number change,,-2.4%
same,AC50,[2],"1.84 µM [falling, partial curve]"
same,AC50,[1],"2.06 µM [falling, partial curve]"
Cc1ccc(C(=O)Nc2ccc3cn[nH]c3c2)cc1S(=O)(=O)N1CCCCC1,cell number change,,18.7%
O=C(NCc1ccco1)c1ccccc1Br,cell number change,,-0.391%
OCC[C@H]1C[C@@H](O)[C@H](O)[C@@]2(CCc3ccccc3CO2)O1,cell number change,,-10.4%
same,AC50,[1],"6.51 µM [rising, partial curve]"
O=C(NC1=NCCS1)c1cccc(OC(F)F)c1,cell number change,,-11.6%
CC1(C)NC(=O)N(CCCCOc2ccccc2[N+](=O)[O-])C1=O,cell number change,,135%
same,AC50,[2],"23.1 µM [rising, partial curve]"
Cc1ccccc1NC(=O)NNC(=O)c1ccc2ccccc2c1,cell number change,,21.6%
same,AC50,[1],"0.651 µM [rising, single point]"
CC(C)c1ccc(NC2(C#N)C(=O)Nc3ccccc32)cc1 (stereo not drawn),cell number change,,-32.3%
same,AC50,[2],"29.1 µM [falling, single point]"
CCOc1ccc2oc(C(=O)NNC(=O)c3csc(N4CCOCC4)n3)c(C)c2c1,cell number change,,11.5%
same,AC50,[1],"6.51 µM [rising, single point]"
O=c1[nH]c(CCC2CCCC2)nc2ccccc12,cell number change,,10.8%
same,AC50,[1],"11.6 µM [rising, partial curve, poor fit]"
COc1ccc(S(=O)(=O)N2CCC(C(=O)Nc3ccc4c(c3)OCCO4)CC2)cc1OC,cell number change,,35.7%
same,AC50,[2],"8.2 µM [rising, partial curve]"
same,AC50,[1],"6.51 µM [rising, single point]"
C=CCOc1ccc(CNc2ccc(NC(=O)CC(C)C)cc2)cc1OC,cell number change,,17.3%
same,AC50,[1],"20.6 µM [rising, single point]"
COc1ccc(N(CC(C)C)S(=O)(=O)c2nnc(NC(=O)CC(C)C)s2)cc1,cell number change,,-29.8%
O=C(OCC(=O)c1ccc[nH]1)c1cncc(Br)c1,cell number change,,8.93%
same,AC50,[1],"0.731 µM [rising, full curve]"
O=C(Nc1ccc(OCC(=O)N2CCOCC2)cc1)c1cc(F)c(F)cc1Cl,cell number change,,5.41%
same,AC50,[1],"29.1 µM [rising, single point]"
CCn1c(CNc2ccc(OC)cc2)nnc1SCC(=O)Nc1ccc(F)cc1,cell number change,,-28.7%
same,AC50,[1],"8.2 µM [falling, partial curve]"
NNC(=O)c1cnn(-c2ccccc2)c1C(F)(F)F,cell number change,,63.9%
same,AC50,[2],"23.1 µM [rising, single point]"
Cc1ccc(SCC(=O)NC(C)(C)C)cc1,cell number change,,-0.363%
same,AC50,[1],"0.92 µM [falling, full curve]"
CN(C)/C=C/C(=O)c1cccc(Oc2ncccn2)c1,cell number change,,-34.2%
CCn1c(=O)c(C(=O)NCc2cccnc2)c(O)c2ccccc21,cell number change,,-19.3%
same,AC50,[1],"29.1 µM [rising, single point]"
O=C(CN1C(=O)c2ccccc2C1=O)Nc1nc(-c2cccc([N+](=O)[O-])c2)cs1,cell number change,,0.58%
same,AC50,[1],"1.16 µM [falling, full curve]"
Cc1onc(-c2ccccc2)c1C(=O)N(Cc1ccco1)Cc1cccs1,cell number change,,20.8%
same,AC50,[1],"3.26 µM [rising, partial curve]"
COc1ccccc1OCc1nc(-c2cccc([N+](=O)[O-])c2)no1,cell number change,,111%
same,AC50,[2],"23.1 µM [rising, single point]"
same,AC50,[1],"0.651 µM [rising, single point]"
Cc1ccc(S(=O)(=O)N2CCCCC2)cc1NC(=O)c1c(-c2ccccc2)noc1C,cell number change,,14.3%
same,AC50,[1],"0.058 µM [rising, full curve, poor fit]"
CCOc1cc(C2C3=C(CCCC3=O)N(CC(=O)O)C3=C2C(=O)CCC3)ccc1OC,cell number change,,5.82%
same,AC50,[1],"29.1 µM [rising, partial curve, poor fit]"
